# Cell number after 72 h of treatment

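Human melanoma cells were exposed to one drug for 72 h in 1,536-well plates and read by automated microscopy after fixing and staining. The read-out is cell count (nuclei) in % of the DMSO control; lower values mean stronger growth inhibition or killing. Concentrations were fixed for each drug; these are the higher of two levels. These are primary screening values without error estimates.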 Only some of the drugs and lines screened are listed, without regard to their results.

NC(=O)c1ccc(N(C(N)=O)c2c(F)cccc2F)nc1-c1ccc(F)cc1F at 2 µM gave WM3619: 112; A2058: 112; C32: 89.7; WM1716: 117; A375: 111; MEL-HO: 110. Results for O=C(O)[C@@H]1[O][Sb](=[O])([O][Sb]2(=[O])[O][C@H]([C@H](O)CO)[C@H](O)[C@H](C(=O)O)[O]2)[O][C@H]([C@H](O)CO)[C@@H]1O (stereo partly drawn) at 10 µM are WM3619: 120; A2058: 102; C32: 102; WM1716: 93.2; A375: 102; MEL-HO: 101. CO[C@@H]1[C@H](N(C)C(=O)c2ccccc2)C[C@H]2O[C@]1(C)n1c3ccccc3c3c4c(c5c6ccccc6n2c5c31)C(=O)NC4 at 0.4 µM gave WM3619: 91.0; A2058: 72.0; C32: 93.9; WM1716: 57.8; A375: 85.7; MEL-HO: 67.2. With CC(C)CCN1c2nc(Nc3cc(F)c(O)c(F)c3)ncc2N(C)C(=O)C1C (stereo not drawn) at 1 µM the screen read WM3619: 78.2; A2058: 96.2; C32: 90.4; WM1716: 91.6; A375: 89.7; MEL-HO: 83.2. With COc1cc2ncnc(Nc3ccc(Oc4ccccc4)cc3)c2cc1OC at 10 µM the screen read WM3619: 79.9; A2058: 103; C32: 88.5; WM1716: 84.5; A375: 128; MEL-HO: 84.5.

Results for CN(NC(=O)CC(=O)NN(C)C(=S)c1ccccc1)C(=S)c1ccccc1 at 0.03 µM are WM3619: 5.4; A2058: 10.7; C32: 22.4; WM1716: 77.0; A375: 109; MEL-HO: 87.7. With Cn1cncc1[C@@](N)(c1ccc(Cl)cc1)c1ccc2c(c1)c(-c1cccc(Cl)c1)cc(=O)n2C at 0.05 µM the screen read WM3619: 97.4; A2058: 95.1; C32: 97.3; WM1716: 78.1; A375: 105; MEL-HO: 88.7. Results for COc1cc([C@@H]2c3cc4c(cc3[C@@H](O[C@@H]3O[C@@H]5CO[C@@H](C)O[C@H]5[C@H](O)[C@H]3O)[C@H]3COC(=O)[C@H]23)OCO4)cc(OC)c1O at 0.1 µM are WM3619: 66.6; A2058: 64.3; C32: 76.7; WM1716: 60.7; A375: 81.7; MEL-HO: 85.7. C[C@]1(c2nc3c(C(N)=O)cccc3[nH]2)CCCN1 at 7 µM gave WM3619: 98.2; A2058: 79.7; C32: 81.2; WM1716: 91.3; A375: 93.3; MEL-HO: 99.0. Results for C[C@]12O[C@H](C[C@]1(O)CO)n1c3ccccc3c3c4c(c5c6ccccc6n2c5c31)CNC4=O at 0.02 µM are WM3619: 64.7; A2058: 95.9; C32: 80.8; WM1716: 87.0; A375: 83.3; MEL-HO: 87.4.

With CC(=O)O[C@@]12CO[C@@H]1C[C@H](O)[C@@]1(C)C(=O)[C@H](O)C3=C(C)[C@@H](OC(=O)[C@H](O)[C@@H](NC(=O)OC(C)(C)C)c4ccccc4)C[C@@](O)([C@@H](OC(=O)c4ccccc4)[C@H]21)C3(C)C at 0.0005 µM the screen read WM3619: 59.1; A2058: 12.0; C32: 73.4; WM1716: 36.7; A375: 80.9; MEL-HO: 38.6. CC(C)C[C@H](NC(=O)[C@H](Cc1ccccc1)NC(=O)c1cnccn1)B(O)O at 0.005 µM gave WM3619: 1.6; A2058: 14.4; C32: 30.3; WM1716: 12.3; A375: 98.2; MEL-HO: 27.0. Nc1ccn([C@@H]2O[C@H](CO)[C@@H](O)C2(F)F)c(=O)n1 at 0.002 µM gave WM3619: 40.5; A2058: 50.0; C32: 94.7; WM1716: 68.8; A375: 92.0; MEL-HO: 54.1. With CN1CCN(c2ccc3nc(-c4c(N)c5c(F)cccc5[nH]c4=O)[nH]c3c2)CC1 at 0.5 µM the screen read WM3619: 74.4; A2058: 54.9; C32: 72.9; WM1716: 72.4; A375: 68.4; MEL-HO: 83.1. Results for COc1cc2c(Oc3ccc4[nH]c(C)cc4c3F)ncnc2cc1OCCCN1CCCC1 at 2 µM are WM3619: 113; A2058: 90.7; C32: 80.2; WM1716: 93.4; A375: 130; MEL-HO: 102.

Results for CN(C)S(=O)(=O)c1ccc2c(c1)/C(=C/c1cc3c([nH]1)CCCC3)C(=O)N2 at 2 µM are WM3619: 76.0; A2058: 94.6; C32: 86.3; WM1716: 76.7; A375: 166; MEL-HO: 88.6. c1cc(-c2cnn3cc(-c4ccc(OCCN5CCCCC5)cc4)cnc23)ccn1 at 2 µM gave WM3619: 86.3; A2058: 82.9; C32: 58.5; WM1716: 64.8; A375: 81.2; MEL-HO: 91.7. NC(=O)Nc1cc(-c2cccc(F)c2)sc1C(=O)N[C@H]1CCCNC1 at 0.1 µM gave WM3619: 15.3; A2058: 100; C32: 76.7; WM1716: 87.7; A375: 65.7; MEL-HO: 86.1. For COc1ccc(C2=N[C@@H](c3ccc(Cl)cc3)[C@@H](c3ccc(Cl)cc3)N2C(=O)N2CCNC(=O)C2)c(OC(C)C)c1 at 0.5 µM the values were WM3619: 128; A2058: 102; C32: 74.2; WM1716: 75.5; A375: 87.6; MEL-HO: 94.8. With OCc1c[nH]c2ccccc12 at 4 µM the screen read WM3619: 122; A2058: 126; C32: 127; WM1716: 106; A375: 112; MEL-HO: 123.

With COc1cc(Nc2ncc(F)c(Nc3ccc4c(n3)NC(=O)C(C)(C)O4)n2)cc(OC)c1OC at 2 µM the screen read WM3619: 100; A2058: 93.7; C32: 103; WM1716: 86.2; A375: 106; MEL-HO: 80.6. Results for Cc1ccc(Nc2nccc(N(C)c3ccc4c(C)n(C)nc4c3)n2)cc1S(N)(=O)=O at 2 µM are WM3619: 98.9; A2058: 94.0; C32: 102; WM1716: 101; A375: 86.2; MEL-HO: 85.1. With COc1ccc(-c2ccc3c(N4CCOCC4)nc(N4C[C@@H](C)O[C@@H](C)C4)nc3n2)cc1CO at 0.1 µM the screen read WM3619: 85.3; A2058: 118; C32: 101; WM1716: 125; A375: 104; MEL-HO: 108. For O=C(O)c1ccc(-c2c[nH]c3ncc(-c4ccccc4)cc23)cc1C1CCCC1 at 0.8 µM the values were WM3619: 68.9; A2058: 111; C32: 123; WM1716: 76.1; A375: 85.8; MEL-HO: 71.7. For C[C@@H]1CCN(C(=O)CC#N)C[C@@H]1N(C)c1ncnc2[nH]ccc12 at 5 µM the values were WM3619: 129; A2058: 107; C32: 110; WM1716: 102; A375: 120; MEL-HO: 102.

Nc1cccc2c1CN(C1CCC(=O)NC1=O)C2=O (stereo not drawn) at 5 µM gave WM3619: 76.5; A2058: 79.5; C32: 117; WM1716: 102; A375: 103; MEL-HO: 68.2. With O=C(Nc1cc(C(F)(F)F)cc(C(F)(F)F)c1)c1cc(Cl)ccc1O at 0.08 µM the screen read WM3619: 78.6; A2058: 103; C32: 106; WM1716: 91.5; A375: 99.2; MEL-HO: 93.7. With COCC[n+]1c2c(n(Cc3cnccn3)c1C)C(=O)c1ccccc1C2=O at 0.002 µM the screen read WM3619: 80.8; A2058: 16.2; C32: 90.5; WM1716: 63.6; A375: 73.2; MEL-HO: 72.7. For Cn1c(=O)n(-c2ccc(C(C)(C)C#N)cc2)c2c3cc(-c4cnc5ccccc5c4)ccc3ncc21 at 0.02 µM the values were WM3619: 72.8; A2058: 82.4; C32: 74.0; WM1716: 74.8; A375: 101; MEL-HO: 78.9. Cc1cc(SCc2sc(-c3ccc(C(F)(F)F)c(F)c3)nc2C)ccc1OCC(=O)O at 10 µM gave WM3619: 75.3; A2058: 104; C32: 83.1; WM1716: 84.2; A375: 98.3; MEL-HO: 80.9.

The last 3 entries again:

* COCC[n+]1c2c(n(Cc3cnccn3)c1C)C(=O)c1ccccc1C2=O at 0.002 µM : WM3619: 80.8; A2058: 16.2; C32: 90.5; WM1716: 63.6; A375: 73.2; MEL-HO: 72.7
* Cn1c(=O)n(-c2ccc(C(C)(C)C#N)cc2)c2c3cc(-c4cnc5ccccc5c4)ccc3ncc21 at 0.02 µM : WM3619: 72.8; A2058: 82.4; C32: 74.0; WM1716: 74.8; A375: 101; MEL-HO: 78.9
* Cc1cc(SCc2sc(-c3ccc(C(F)(F)F)c(F)c3)nc2C)ccc1OCC(=O)O at 10 µM : WM3619: 75.3; A2058: 104; C32: 83.1; WM1716: 84.2; A375: 98.3; MEL-HO: 80.9

Values as published with doi:10.1371/journal.pone.0140310, rounded.